Data taken from the supplement of paper PMC11006884.
The targets with a hit were mostly taken out for another list; the other results follow. Single values of this set are uncertain. Only a part is listed here, and it is no random draw.

By UniProt entry, the sequences of proteins in these tests, tags left out. Where a name states a change or a piece, a line headed by the entry shows the natural chain unless it says otherwise.
UniProt Q08170: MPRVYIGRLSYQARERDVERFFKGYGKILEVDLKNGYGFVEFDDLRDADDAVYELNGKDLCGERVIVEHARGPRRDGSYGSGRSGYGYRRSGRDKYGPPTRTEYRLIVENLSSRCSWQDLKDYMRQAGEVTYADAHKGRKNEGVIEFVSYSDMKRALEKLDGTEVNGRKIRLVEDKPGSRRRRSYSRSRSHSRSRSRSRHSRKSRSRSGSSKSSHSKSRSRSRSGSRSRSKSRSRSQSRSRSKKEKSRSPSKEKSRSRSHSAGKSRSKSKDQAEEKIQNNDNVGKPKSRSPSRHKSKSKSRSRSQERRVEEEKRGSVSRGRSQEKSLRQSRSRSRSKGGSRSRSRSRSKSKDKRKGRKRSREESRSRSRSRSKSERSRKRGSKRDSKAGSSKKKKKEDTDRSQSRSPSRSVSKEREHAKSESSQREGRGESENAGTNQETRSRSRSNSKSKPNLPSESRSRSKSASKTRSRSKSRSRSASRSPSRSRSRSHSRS
UniProt Q13029: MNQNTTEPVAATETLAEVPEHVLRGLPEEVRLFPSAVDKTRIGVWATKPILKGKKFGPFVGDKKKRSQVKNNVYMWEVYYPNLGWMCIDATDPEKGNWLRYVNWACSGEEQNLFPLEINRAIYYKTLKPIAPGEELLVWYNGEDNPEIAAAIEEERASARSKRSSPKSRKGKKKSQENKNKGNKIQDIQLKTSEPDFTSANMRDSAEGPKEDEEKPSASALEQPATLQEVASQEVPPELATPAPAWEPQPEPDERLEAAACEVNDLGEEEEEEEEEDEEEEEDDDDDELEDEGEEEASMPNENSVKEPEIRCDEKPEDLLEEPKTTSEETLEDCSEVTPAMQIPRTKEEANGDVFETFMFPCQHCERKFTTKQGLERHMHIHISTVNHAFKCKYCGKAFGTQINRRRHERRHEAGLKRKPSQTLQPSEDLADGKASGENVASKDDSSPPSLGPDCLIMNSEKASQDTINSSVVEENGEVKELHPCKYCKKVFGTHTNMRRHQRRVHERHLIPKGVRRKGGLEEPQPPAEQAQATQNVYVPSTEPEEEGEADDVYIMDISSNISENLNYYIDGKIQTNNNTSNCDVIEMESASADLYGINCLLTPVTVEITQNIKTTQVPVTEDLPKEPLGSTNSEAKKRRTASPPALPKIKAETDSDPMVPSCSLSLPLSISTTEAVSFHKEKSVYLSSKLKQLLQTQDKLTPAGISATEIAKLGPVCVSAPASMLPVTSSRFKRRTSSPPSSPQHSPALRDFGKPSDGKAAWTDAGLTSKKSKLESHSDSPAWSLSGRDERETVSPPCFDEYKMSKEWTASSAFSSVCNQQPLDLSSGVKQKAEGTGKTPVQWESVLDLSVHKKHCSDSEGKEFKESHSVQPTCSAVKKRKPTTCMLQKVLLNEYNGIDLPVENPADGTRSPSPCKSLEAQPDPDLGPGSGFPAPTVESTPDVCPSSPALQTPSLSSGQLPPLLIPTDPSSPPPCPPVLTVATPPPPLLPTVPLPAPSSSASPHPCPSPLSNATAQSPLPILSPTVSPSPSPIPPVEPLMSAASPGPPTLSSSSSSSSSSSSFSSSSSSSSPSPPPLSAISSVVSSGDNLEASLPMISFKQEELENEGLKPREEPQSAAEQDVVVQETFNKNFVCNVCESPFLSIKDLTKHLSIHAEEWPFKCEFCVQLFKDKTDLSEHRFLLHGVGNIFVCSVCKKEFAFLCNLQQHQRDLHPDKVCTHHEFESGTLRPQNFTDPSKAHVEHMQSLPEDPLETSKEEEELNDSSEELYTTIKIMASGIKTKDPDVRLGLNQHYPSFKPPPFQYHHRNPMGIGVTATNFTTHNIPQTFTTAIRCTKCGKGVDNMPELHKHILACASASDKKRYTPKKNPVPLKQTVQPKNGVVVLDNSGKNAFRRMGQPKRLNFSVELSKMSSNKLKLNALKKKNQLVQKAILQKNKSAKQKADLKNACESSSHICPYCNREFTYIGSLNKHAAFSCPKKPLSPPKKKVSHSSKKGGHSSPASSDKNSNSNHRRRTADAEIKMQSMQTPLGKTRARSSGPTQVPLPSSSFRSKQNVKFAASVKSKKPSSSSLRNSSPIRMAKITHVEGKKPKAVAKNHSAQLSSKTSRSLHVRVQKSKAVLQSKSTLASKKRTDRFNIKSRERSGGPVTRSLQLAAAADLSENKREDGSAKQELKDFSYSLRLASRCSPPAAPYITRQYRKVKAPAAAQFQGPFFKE
UniProt Q12888: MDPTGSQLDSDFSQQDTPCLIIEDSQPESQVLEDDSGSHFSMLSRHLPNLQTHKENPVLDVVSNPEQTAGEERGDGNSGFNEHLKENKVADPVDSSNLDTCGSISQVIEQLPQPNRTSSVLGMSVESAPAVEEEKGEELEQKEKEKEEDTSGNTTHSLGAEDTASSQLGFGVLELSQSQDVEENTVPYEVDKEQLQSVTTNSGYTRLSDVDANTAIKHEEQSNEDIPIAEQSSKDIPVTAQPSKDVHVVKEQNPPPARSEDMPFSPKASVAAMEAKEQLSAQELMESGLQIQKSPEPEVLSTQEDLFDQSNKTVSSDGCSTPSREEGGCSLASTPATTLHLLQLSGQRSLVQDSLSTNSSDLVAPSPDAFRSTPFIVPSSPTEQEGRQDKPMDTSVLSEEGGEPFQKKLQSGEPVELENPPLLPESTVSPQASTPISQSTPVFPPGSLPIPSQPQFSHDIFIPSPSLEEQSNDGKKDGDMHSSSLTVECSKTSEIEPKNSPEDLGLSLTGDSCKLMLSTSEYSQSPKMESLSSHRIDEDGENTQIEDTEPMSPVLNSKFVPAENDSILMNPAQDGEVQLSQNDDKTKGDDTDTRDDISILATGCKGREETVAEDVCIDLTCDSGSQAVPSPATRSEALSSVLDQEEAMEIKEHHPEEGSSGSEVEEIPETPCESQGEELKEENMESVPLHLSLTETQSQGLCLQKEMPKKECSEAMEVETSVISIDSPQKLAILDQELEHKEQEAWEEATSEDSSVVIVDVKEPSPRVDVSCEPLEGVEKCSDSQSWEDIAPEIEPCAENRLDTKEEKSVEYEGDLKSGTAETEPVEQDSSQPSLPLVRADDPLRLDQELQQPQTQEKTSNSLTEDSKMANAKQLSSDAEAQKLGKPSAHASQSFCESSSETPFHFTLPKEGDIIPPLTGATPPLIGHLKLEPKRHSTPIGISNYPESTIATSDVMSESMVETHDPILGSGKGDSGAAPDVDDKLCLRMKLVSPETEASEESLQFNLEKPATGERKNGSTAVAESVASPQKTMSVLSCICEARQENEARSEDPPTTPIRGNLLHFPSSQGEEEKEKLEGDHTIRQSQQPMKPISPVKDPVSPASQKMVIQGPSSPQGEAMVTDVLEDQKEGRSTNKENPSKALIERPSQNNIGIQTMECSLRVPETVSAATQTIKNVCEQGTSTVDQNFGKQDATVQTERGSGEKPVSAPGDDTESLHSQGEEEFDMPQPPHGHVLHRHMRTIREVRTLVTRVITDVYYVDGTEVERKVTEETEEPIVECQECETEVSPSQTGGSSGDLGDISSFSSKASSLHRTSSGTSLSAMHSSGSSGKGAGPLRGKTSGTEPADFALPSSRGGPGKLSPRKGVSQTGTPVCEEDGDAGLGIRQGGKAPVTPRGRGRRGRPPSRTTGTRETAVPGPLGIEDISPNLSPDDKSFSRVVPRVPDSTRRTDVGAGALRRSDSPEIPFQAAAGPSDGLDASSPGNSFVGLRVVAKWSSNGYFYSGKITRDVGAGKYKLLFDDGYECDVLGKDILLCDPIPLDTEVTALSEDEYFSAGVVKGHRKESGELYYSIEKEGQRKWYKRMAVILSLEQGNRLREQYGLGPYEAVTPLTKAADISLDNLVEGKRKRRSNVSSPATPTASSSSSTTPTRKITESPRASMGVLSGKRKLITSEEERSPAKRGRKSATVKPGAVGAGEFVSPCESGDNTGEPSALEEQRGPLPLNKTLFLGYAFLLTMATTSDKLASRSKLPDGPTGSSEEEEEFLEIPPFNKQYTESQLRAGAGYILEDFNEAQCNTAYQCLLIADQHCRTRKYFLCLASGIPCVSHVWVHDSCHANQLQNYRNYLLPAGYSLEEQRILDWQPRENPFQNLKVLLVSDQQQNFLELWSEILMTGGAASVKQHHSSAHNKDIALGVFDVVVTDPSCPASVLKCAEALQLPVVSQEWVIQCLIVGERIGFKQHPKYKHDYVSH
UniProt Q08945, whole entry: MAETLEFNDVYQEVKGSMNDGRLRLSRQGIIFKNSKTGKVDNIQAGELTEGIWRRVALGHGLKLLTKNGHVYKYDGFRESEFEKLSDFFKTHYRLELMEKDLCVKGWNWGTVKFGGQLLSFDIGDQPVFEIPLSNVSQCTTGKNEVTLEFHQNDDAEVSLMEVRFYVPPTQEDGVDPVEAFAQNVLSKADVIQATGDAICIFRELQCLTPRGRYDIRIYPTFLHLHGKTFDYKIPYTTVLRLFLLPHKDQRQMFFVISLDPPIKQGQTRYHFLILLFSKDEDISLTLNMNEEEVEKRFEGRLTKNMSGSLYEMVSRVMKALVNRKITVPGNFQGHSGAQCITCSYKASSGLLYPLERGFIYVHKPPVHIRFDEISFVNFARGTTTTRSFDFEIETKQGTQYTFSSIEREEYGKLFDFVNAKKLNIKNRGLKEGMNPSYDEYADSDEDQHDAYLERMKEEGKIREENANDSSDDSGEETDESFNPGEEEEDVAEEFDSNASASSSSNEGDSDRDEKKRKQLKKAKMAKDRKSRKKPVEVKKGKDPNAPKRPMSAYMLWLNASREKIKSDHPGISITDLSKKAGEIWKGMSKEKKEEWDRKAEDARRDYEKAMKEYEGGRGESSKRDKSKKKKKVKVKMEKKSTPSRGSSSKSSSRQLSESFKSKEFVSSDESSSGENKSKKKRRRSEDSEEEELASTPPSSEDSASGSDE
UniProt Q13163: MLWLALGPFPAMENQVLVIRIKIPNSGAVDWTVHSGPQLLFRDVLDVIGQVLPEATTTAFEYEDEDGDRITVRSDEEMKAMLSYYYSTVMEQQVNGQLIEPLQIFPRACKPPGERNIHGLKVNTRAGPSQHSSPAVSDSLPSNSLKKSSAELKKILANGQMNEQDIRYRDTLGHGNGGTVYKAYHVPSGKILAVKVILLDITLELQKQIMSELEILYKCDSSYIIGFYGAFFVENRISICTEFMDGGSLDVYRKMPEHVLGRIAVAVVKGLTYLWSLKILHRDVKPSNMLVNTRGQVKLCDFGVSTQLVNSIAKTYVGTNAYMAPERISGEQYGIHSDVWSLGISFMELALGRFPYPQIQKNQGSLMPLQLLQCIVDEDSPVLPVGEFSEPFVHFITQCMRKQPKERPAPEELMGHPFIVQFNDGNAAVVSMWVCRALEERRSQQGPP
UniProt Q12824, whole entry, looked up: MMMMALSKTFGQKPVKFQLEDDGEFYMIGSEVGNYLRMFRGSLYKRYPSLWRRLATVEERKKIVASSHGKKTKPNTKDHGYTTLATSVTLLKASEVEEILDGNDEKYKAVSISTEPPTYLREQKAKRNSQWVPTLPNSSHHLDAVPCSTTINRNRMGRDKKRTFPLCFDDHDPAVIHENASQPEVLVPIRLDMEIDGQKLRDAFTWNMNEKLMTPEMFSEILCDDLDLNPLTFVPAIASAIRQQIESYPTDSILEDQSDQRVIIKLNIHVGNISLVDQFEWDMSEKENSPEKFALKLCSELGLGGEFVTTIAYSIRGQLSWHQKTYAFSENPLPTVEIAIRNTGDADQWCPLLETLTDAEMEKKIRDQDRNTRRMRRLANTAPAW
UniProt Q13162: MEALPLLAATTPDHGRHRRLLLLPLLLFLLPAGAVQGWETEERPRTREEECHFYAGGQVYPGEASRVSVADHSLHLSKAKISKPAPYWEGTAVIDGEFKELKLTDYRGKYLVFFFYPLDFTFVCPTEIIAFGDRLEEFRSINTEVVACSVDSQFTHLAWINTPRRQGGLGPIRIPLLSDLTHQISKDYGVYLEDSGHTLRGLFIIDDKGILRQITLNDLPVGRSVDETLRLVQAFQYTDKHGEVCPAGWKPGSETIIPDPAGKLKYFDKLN
UniProt Q10471: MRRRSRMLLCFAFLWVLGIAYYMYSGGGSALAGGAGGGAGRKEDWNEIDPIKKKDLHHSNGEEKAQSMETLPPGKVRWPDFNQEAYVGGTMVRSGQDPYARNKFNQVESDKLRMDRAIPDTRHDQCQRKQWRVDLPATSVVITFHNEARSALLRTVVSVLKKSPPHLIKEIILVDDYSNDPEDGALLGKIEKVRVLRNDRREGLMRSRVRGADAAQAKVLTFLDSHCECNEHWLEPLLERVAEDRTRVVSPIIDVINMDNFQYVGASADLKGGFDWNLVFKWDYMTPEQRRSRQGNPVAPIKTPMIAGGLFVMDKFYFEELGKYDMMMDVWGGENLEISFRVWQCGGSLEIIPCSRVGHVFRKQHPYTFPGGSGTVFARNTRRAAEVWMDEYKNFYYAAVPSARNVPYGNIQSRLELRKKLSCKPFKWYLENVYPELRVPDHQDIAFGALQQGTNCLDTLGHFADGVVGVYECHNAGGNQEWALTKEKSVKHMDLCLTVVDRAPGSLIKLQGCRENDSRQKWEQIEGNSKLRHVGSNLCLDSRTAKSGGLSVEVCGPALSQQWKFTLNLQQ

compound: COC(=O)/C=C/c1ccccc1 [methyl cinnamate]; experiment: log2 ratio of iodoacetamide-alkyne labeling of the cysteine site, DMSO over compound (competition); higher = stronger covalent engagement of the cysteine by the compound, active = 1 or more; conditions: 500 µM; treatment time 1 h; system: HEK293T cell lysate
How it was run: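 Reporter intensities give each cysteine's log2 competition ratio as the mean of control channels over the mean of compound channels. The samples were HEK293T lysate (2 mg/mL) given vehicle or electrophile (500 µM, 1 h, ambient temperature), then iodoacetamide alkyne (1 h), followed by click coupling to sCIP-TMT reagents, pooling, trypsin digestion overnight at 37 °C, streptavidin enrichment, acid elution, Orbitrap Eclipse LC-MS/MS with FAIMS and FragPipe quantification. Duplicate channels and three replicates were run, and cysteines quantified in only one replicate were discarded.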

log2 ratio of iodoacetamide-alkyne labeling, inactive:
UniProt Q09028_C138 0.0833
GLO1 C61 (UniProt Q04760) 0.11
UniProt Q08170_C61 -0.0322
GRSF1 C29 (UniProt Q12849) 0.204
UniProt Q12904_C161 0.108
PRDM2 C718 (UniProt Q13029) 0.242
TP53BP1 C1178 (UniProt Q12888) 0.356
TP53BP1 C1159 (UniProt Q12888) -0.0303
SSRP1 C200 (UniProt Q08945) 0.196
RBPJ C397 (UniProt Q06330) 0.321
UniProt Q13163_C300 0.198
NSUN2 C321 (UniProt Q08J23) -0.0977
UniProt Q12824_C350 0.255
UniProt Q12824_C167 -0.159
TJP1 C1740 (UniProt Q07157) 0.25
PRDX4 C51 (UniProt Q13162) 0.25
SCRN1 C324 (UniProt Q12765) 0.366
MTA1 C512 (UniProt Q13330) 0.372
VAC14 C114 (UniProt Q08AM6) 0.216
DST C4439 (UniProt Q03001) 0.331
TARDBP C198 (UniProt Q13148) 0.0226
TRIM32 C23 (UniProt Q13049) -0.455
EIF4G1 C821 (UniProt Q04637) -0.0719
ILF3 C278 (UniProt Q12906) 0.106
NCBP1 C44 (UniProt Q09161) -0.0746
UniProt Q12824_C147 -0.0891
GFPT1 C55 (UniProt Q06210) 0.0635
UniProt Q08170_C115 0.145
UniProt Q09028_C167 0.324
TCOF1 C1012 (UniProt Q13428) 0.229
UniProt Q02930_C69 0.593
TARBP1 C24 (UniProt Q13395) -0.293
GALNT2 C229 (UniProt Q10471) -0.164
GPS1 C251 (UniProt Q13098) 0.44
MCL1 C16 (UniProt Q07820) 0.198
UniProt Q13247_C61 -0.0475
TP53BP1 C1375 (UniProt Q12888) 0.333

Pulled one by one from the list above (3):
log2 ratio of iodoacetamide-alkyne labeling, inactive:
UniProt Q12824_C167 -0.159
TP53BP1 C1159 (UniProt Q12888) -0.0303
PRDM2 C718 (UniProt Q13029) 0.242
